This passage reports binding results from paper PMC4387661.

The chains behind the UniProt entries cited, without tags or fusion partners. Where a name states a change or a piece, a line headed by the entry shows the natural chain unless it says otherwise.
UniProt Q60932: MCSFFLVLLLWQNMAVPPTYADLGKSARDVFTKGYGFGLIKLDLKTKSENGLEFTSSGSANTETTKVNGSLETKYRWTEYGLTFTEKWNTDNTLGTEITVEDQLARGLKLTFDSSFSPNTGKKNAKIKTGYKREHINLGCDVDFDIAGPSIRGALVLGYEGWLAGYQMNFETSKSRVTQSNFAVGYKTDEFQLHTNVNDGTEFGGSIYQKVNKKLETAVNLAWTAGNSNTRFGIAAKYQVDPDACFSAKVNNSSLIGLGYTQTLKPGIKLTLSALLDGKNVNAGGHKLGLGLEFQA

Experiment [1] deals with T1, activating transcription factor 2 (ATF2) (mouse (endogenous in B16F10)) (UniProt P16951).
T1 sequence: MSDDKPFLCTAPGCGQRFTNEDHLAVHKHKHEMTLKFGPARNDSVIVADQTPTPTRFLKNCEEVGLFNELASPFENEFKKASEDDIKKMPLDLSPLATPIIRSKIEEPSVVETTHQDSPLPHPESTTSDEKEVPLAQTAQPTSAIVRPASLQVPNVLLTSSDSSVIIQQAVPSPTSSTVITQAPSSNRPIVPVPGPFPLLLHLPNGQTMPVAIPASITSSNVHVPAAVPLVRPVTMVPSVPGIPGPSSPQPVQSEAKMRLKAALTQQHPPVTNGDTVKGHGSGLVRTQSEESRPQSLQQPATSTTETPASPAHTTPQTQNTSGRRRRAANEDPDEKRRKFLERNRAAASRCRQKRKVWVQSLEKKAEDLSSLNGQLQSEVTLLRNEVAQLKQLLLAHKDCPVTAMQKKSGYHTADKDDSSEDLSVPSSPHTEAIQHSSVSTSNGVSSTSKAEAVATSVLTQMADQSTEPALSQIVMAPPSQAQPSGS
Put plainly: co-IP; ATF2 immunoprecipitated from B16F10 cells stably transfected with HK1 shRNA or VDAC1 shRNA, basal and after PTX; immunoblot for HK1 and VDAC1. (In general: In western blotting, separated proteins are transferred to a membrane and probed.)

In experiment [2] the target is voltage-dependent anion channel-1 (VDAC1) (mouse (endogenous in B16F10)) (UniProt Q60932). Put plainly: co-IP; endogenous VDAC1 immunoprecipitated from B16F10 cells that were crosslinked and lysed, prior to and after PTX; cells stably transfected with ATF2 shRNA or ATF2 T52A; immunoblot for ATF2 and HK1.

These are yes or no findings as the source states them, for the method shown. Binding seen in cells or lysates may run through a third protein. Binding can be weak; no strength is given.

For the molecule “hexokinase-1 (HK1) (from UniProt P17710-3) (enzyme)”, the binding entry in experiment [1] and in experiment [2] was “binds” throughout.
Consider “voltage-dependent anion channel-1 (VDAC1) (from UniProt Q60932)”, for which, in experiment [1], the binding result was “binds”.

B1: activating transcription factor 2 (ATF2) (protein, UniProt P16951 1-487)
chain: T1 sequence
For B1, in experiment [2], the binding result is reported as “binds”.
